No constants are given. Whether binding was seen depends on the method and setting. In cells and extracts the contact can be indirect. Some results given as binding are weak or reduced against the parent protein; the word gives no strength. Each block holds one molecule with its values, some of them ahead of it.
Experiments:
Assay in all cases: FRET or BRET
GTF2F2 (human) = GTF2F2 (human) (UniProt P13984)
LSM2 (human) = biological target: T1, LSM2 (human) (UniProt Q9Y333)
T1 sequence: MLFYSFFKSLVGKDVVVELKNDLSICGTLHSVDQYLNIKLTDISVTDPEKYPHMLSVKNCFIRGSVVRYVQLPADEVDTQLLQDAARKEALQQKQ

Chains of the proteins cited; added tags and fusions are not shown.
UniProt P13984: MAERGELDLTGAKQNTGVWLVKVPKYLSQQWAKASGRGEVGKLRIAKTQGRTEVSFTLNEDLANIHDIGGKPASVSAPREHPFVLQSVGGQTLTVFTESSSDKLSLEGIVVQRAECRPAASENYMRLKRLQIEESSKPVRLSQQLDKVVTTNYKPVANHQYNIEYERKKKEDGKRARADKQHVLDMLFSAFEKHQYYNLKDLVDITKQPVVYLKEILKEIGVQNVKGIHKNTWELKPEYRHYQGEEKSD
UniProt Q9H081: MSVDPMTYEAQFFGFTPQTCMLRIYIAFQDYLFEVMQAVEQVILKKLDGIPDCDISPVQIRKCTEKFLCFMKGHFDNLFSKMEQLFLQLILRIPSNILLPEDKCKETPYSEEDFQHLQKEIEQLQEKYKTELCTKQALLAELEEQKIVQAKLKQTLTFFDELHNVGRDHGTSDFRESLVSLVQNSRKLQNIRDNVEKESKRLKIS
UniProt P35269: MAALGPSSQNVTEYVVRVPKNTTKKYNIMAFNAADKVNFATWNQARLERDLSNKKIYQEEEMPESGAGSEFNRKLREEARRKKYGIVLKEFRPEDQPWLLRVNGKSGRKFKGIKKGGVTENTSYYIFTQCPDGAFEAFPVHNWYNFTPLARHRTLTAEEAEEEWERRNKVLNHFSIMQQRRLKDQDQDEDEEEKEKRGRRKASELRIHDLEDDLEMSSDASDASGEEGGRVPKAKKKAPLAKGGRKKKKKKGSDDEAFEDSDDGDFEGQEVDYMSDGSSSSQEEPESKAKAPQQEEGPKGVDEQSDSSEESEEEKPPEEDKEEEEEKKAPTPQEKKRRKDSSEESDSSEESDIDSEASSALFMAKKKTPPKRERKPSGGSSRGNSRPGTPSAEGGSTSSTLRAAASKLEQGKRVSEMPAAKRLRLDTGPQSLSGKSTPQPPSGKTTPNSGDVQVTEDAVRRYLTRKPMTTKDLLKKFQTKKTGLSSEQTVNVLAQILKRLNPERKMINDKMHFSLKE
UniProt P62310: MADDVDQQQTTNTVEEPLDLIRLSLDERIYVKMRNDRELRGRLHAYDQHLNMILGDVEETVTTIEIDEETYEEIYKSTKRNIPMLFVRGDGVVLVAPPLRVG

PMF1 (human) = biological target: T2, PMF1 (human) (UniProt Q6P1K2)
T2 sequence: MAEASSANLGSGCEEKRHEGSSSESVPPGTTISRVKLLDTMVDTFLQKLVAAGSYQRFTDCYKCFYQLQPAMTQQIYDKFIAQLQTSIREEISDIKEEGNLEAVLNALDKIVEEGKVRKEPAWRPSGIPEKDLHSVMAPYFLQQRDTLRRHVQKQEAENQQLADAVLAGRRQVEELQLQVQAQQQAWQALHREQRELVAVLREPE

BATF (human) = biological target: T3, BATF (human) (UniProt Q16520)
T3 sequence: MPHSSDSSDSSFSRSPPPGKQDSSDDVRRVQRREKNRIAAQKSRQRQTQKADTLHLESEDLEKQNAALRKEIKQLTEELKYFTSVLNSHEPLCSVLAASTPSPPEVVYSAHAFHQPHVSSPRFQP

DRAP1 (human) = biological target: T4, DRAP1 (human) (UniProt Q14919)
T4 sequence: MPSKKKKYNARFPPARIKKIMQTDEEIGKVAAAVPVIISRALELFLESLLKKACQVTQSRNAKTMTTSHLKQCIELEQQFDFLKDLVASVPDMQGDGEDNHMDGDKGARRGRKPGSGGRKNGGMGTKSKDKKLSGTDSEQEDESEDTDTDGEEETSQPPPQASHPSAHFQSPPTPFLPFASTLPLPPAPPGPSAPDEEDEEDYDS

Molecule: MIS12 (from UniProt Q9H081 1-205)
binding (PMF1 (human)): binds

B1: JUNB (protein, UniProt P17275 1-347)
chain: MCTKMEQPFYHDDSYTATGYGRAPGGLSLHDYKLLKPSLAVNLADPYRSLKAPGARGPGPEGGGGGSYFSGQGSDTGASLKLASSELERLIVPNSNGVITTTPTPPGQYFYPRGGGSGGGAGGAGGGVTEEQEGFADGFVKALDDLHKMNHVTPPNVSLGATGGPPAGPGGVYAGPEPPPVYTNLSSYSPASASSGGAGAAVGTGSSYPTTTISYLPHAPPFAGGHPAQLGLGRGASTFKEEPQTVPEARSRDATPPVSPINMEDQERIKVERKRLRNRLAATKCRKRKLERIARLEDKVKTLKAENAGLSSTAGLLREQVAQLKQKVMTHVSNGCQLLLGVKGHAF
binding (BATF (human)): binds

The remaining lines, values ahead:

binding (GTF2F2 (human)): binds
Molecule: GTF2F1 (from UniProt P35269 1-517)

binding (LSM2 (human)): binds
Molecule: LSM3 (from UniProt P62310 1-102)

binding (DRAP1 (human)): binds
B2: DR1 (protein, UniProt Q01658 1-176)
chain: MASSSGNDDDLTIPRAAINKMIKETLPNVRVANDARELVVNCCTEFIHLISSEANEICNKSEKKTISPEHVIQALESLGFGSYISEVKEVLQECKTVALKRRKASSRLENLGIPEEELLRQQQELFAKARQQQAELAQQEWLQMQQAAQQAQLAAASASASNQAGSSQDEEDDDDI

— paper doi:10.1101/2021.08.25.457734
